Here are results for one substance from patent publication US20090291088A1, “THERAPEUTIC COMBINATIONS OF ANTI-IGF-1R ANTIBODIES AND OTHER COMPOUNDS” (Biogen Idec MA Inc., priority 2008, published 2009).

Chains of the proteins cited; added tags and fusions are not shown. Residues count along the entry.
UniProt P27986, residues 2-724: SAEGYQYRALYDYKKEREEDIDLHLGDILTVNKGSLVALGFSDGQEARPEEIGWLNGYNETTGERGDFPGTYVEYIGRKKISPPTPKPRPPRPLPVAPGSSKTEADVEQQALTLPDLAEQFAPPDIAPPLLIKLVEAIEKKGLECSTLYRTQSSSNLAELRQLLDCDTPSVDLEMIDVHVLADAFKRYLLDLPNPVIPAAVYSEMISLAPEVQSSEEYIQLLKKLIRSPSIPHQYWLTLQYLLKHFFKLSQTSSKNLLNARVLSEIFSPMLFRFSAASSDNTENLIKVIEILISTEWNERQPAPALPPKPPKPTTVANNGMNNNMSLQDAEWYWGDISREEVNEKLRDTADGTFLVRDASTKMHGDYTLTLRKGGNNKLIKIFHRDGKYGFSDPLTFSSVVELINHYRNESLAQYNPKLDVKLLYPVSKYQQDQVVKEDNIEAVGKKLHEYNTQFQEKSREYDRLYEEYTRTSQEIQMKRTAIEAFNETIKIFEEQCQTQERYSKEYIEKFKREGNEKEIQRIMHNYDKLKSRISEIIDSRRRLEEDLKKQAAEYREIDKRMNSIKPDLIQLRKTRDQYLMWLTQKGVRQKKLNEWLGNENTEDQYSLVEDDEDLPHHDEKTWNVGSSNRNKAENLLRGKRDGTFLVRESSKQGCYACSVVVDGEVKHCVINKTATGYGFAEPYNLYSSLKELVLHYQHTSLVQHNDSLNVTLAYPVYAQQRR
UniProt P35568: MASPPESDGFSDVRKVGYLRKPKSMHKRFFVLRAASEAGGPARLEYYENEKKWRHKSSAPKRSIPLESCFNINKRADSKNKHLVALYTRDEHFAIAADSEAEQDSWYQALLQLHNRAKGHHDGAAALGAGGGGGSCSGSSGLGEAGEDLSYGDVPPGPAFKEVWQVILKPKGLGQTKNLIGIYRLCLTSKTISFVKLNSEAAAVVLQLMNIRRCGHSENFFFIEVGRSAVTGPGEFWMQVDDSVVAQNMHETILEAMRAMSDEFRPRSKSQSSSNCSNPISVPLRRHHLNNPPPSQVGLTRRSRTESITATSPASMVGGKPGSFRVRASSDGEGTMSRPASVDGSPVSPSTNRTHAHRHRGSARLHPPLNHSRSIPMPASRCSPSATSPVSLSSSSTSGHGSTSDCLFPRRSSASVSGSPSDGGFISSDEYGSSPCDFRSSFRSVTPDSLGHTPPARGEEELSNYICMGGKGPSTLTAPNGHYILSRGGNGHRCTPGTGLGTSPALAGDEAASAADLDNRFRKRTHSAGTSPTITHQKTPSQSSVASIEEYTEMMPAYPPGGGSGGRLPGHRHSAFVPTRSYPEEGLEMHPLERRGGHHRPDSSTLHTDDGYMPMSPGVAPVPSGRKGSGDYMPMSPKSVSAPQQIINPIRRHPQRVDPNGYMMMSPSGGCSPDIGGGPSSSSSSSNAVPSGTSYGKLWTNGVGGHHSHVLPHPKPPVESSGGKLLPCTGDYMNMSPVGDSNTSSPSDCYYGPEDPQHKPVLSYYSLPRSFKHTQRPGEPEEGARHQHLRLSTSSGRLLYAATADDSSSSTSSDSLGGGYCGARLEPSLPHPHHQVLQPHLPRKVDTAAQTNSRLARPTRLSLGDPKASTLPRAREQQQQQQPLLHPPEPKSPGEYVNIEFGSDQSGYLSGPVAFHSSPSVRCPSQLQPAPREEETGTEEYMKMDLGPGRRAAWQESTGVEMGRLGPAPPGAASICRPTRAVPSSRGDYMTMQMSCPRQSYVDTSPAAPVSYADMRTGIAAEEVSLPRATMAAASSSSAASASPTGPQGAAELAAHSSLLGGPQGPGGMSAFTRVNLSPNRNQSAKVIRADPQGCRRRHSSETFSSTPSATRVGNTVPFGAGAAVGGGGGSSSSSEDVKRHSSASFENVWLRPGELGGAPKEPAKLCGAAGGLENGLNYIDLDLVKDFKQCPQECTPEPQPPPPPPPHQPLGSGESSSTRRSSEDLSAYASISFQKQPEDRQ

No constants are given. Whether binding was seen depends on the method and setting. Binding seen in cells or lysates may run through a third protein. Some entries that bind do so weakly or less than the wild type.

Test [1] addresses p85 regulatory subunit of phosphoinositide 3-kinase (PI3K) (human) (UniProt P27986). As to the kind of experiment: co-immunoprecipitation with anti-p85 from cell lysates, western blot with anti-IRS-1 and anti-p85. Background: In western blotting, separated proteins are transferred to a membrane and probed.
For test [2] the target is unchanged. As to the kind of experiment: co-immunoprecipitation with anti-p85 and Western blot.

For the substance “insulin receptor substrate (IRS-1) (from UniProt P35568 1-1242)”, the binding result in test [1] and in test [2] was “binds” in each case.
